Measurements published in PubChem BioAssay AID1487 (National Center for Advancing Translational Sciences (NCATS), 2009).
“And” between values parts separate entries of the source, which are not always exact repeats. Identical values can stand only once. Some of the results follow. Shown are side measurements of this screen, not its main read-out; they come without a call. Compounds called inactive in the main read-out are mostly missing here. The note in brackets gives the kind of curve behind each potency; many fits are weak.

Experiment: qHTS Assay for Modulators of Lamin A Splicing
Conditions: HeLa LMNA splicing GFP/RFP minigene ratio, 48 h
Summary of the method: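 S3 HeLa stable clones carrying a lamin A-EGFP splicing minigene plus DsRed2 were seeded at 600 cells/well in Opti-MEM with 2% FBS, pin-dosed and incubated 48 h at 37°C. Acumen cytometry (488 nm) gave the GFP/RFP total-intensity ratio.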

[1] = measured here: RFP viability control channel
[2] = measured here: GFP splicing reporter channel

Row | Structure (SMILES) | AC50 [1] | AC50 [2]
1 | Cc1cccc(N2CCN(C3(c4ccccc4)C(=O)c4ccccc4C3=O)CC2)c1C | 12.6 µM [rising, single point] | 
2 | Cc1ccc2onc(CC(=O)N(C)c3ccccc3)c2c1 | 0.0112 µM [rising, full curve, poor fit] | 
3 | O=S(=O)(Nc1ccc2nc(-c3cccc(Cl)c3)oc2c1)c1ccccc1 | 28.2 µM [falling, partial curve, poor fit] | 35.5 µM [falling, single point]
4 | CN(CC(=O)Nc1ccc(Cl)c(C(F)(F)F)c1)C(=O)/C=C/c1ccco1 | 22.4 µM [rising, single point] | 17.8 µM [rising, single point]
5 | CCOC(=O)C1CCCc2c1[nH]c1ccc(Cl)cc21 (configuration not stated) | 3.16 µM [falling, single point] | 
6 | O=S(=O)(Nc1nccs1)c1ccc(Cl)cc1 | 0.0501 µM [falling, full curve, poor fit] | 
7 | COc1cc(/C=N/n2c(-c3ccc4c(c3)NC(=O)CO4)csc2=Nc2cccc(C)c2)ccc1O | 11.2 µM [rising, partial curve] | 
8 | O=C1NC(c2ccccn2)Nc2sc3c(c21)CCC3 (configuration not stated) | 12.6 µM [rising, partial curve] | 
9 | O=C(Cn1ccc(C(F)(F)F)n1)Nc1ccc(S(=O)(=O)NCc2ccco2)cc1 |  | 10 µM [rising, partial curve, poor fit]
10 | O=C(c1ccccc1)c1cc(Cl)ccc1N1C(=O)C=CC1=O |  | 35.5 µM [falling, single point]
11 | CC(C)(C)N(NC(=O)OCc1ccccc1)C(=O)c1ccccc1 |  | 1 µM [rising, partial curve]
12 | COC(=O)c1cn(-c2ccccc2)c(=O)c2ccccc12 | 0.2 µM [falling, full curve, poor fit] | 
13 | O=C(c1ccco1)c1cn(CC(=O)N2CCCCC2)c2ccccc12 | 28.2 µM [rising, single point] | 
14 | CC(C)c1ccc(C2=C(O)c3ccccc3C(=O)C2=O)cc1 | 22.4 µM [rising, partial curve, poor fit] | 
15 | Cc1ccc(N2C(=O)NC(NC(=O)c3ccc(Cl)cc3)(C(F)(F)F)C2=O)cc1 (configuration not stated) | 31.6 µM [rising, single point] | 10 µM [rising, partial curve]
16 | CCOCCCn1c(SCC(=O)Nc2cc(C(C)(C)C)nn2-c2ccccc2)nc2ccccc2c1=O | 10 µM [rising, partial curve, poor fit] | 
17 | C1CCCN(c2nc3nonc3nc2N2CCCCCC2)CC1 | 4.47 µM [rising, single point] | 2.51 µM [rising, single point]
18 | COc1ccccc1NS(=O)(=O)c1cc(NC(=O)c2cccs2)ccc1N1CCCCC1 | 12.6 µM [rising, partial curve] | 10 µM [rising, partial curve, poor fit]
19 | COc1ccc(Cn2c(-c3ccc(C)cc3)nc3c(c(=O)c4ccccc4n3C)c2=O)cc1 | 0.447 µM [rising, partial curve] | 
20 | CN1CCCN=C1COC(=O)C(O)(c1ccccc1)C1CCCCC1 (configuration not stated) | 20 µM [falling, single point] and 3.55 µM [rising, single point] | 1 µM [falling, single point]
21 | COc1ccc(CC(=O)NCc2ccc3c(c2)CCN3C(=O)c2ccc(Cl)cc2)cc1OC |  | 8.91 µM [falling, partial curve, poor fit]
22 | COc1cccc(CNCC(O)(c2ccc(Cl)cc2)c2ccc(Cl)cc2)c1 | 35.5 µM [falling, single point] | 22.4 µM [falling, single point]
23 | Cc1cccc(C)c1NC(=O)C1(N(Cc2ccco2)C(=O)c2ccccn2)CCCC1 | 35.5 µM [rising, single point] | 35.5 µM [rising, single point]
24 | Cc1nc(SCC(=O)c2c(C)[nH]c3ccccc23)c2c(=O)n(C)c(=O)n(CC(C)C)c2n1 | 3.55 µM [rising, single point] | 5.62 µM [rising, single point]
25 | Cc1ccc(OCCN2C(=O)C(=O)c3cccc(C)c32)cc1 |  | 11.2 µM [falling, partial curve, poor fit]
26 | COC(=O)NNC(=O)c1ccc(Cl)cc1Cl |  | 31.6 µM [rising, single point]
27 | COc1ccc(N(Cc2cccs2)C(=O)Nc2ccccc2)cc1 | 31.6 µM [rising, single point] | 
28 | Cc1nc2cnc(OCc3ccccc3)nc2n(CCc2ccccc2)c1=O | 35.5 µM [falling, partial curve, poor fit] | 22.4 µM [falling, single point]

Row | Structure (SMILES) | AC50 [1] | AC50 [2]
29 | Fc1ccc(C(c2nnnn2Cc2ccccc2)N2CCSCC2)cc1 (configuration not stated) | 1 µM [rising, full curve, poor fit] | 17.8 µM [rising, partial curve, poor fit]
30 | [O-][n+]1ccccc1SSc1cccc[n+]1[O-] | 0.112 µM [falling, full curve] | 1.78 µM [falling, full curve]
31 | CC(C)CNC(=O)CSc1nnc(-c2cccc(S(=O)(=O)N3CCCCC3)c2)o1 | 2.82 µM [rising, full curve, poor fit] | 
32 | Cc1cnc(CNc2ncnc3ccc(-c4ccccc4C(F)(F)F)cc23)cn1 | 10 µM [falling, partial curve] | 
33 | CC1c2ccccc2SC(CCCN(C)C)c2ccccc21 (configuration not stated) |  | 11.2 µM [rising, single point]
34 | Cc1cc(Oc2ccc(C)c(Cl)c2)nc(SCC(=O)c2ccccc2)n1 | 35.5 µM [rising, single point] | 
35 | Cc1ccc(CNS(=O)(=O)c2cc(C(=O)Nc3cccc(C(F)(F)F)c3)ccc2F)cc1 | 28.2 µM [falling, single point] | 35.5 µM [falling, single point]
36 | COCCNC(=S)N1CCN(Cc2cccc(OC)c2)CC1 | 0.355 µM [falling, full curve, poor fit] | 0.447 µM [falling, full curve, poor fit]
37 | O=C(CSc1n[nH]c(=O)[nH]c1=O)NC1CC1 | 8.91 µM [falling, full curve, poor fit] | 
38 | CC(C)(Oc1ccc(Cl)cc1)C(=O)O |  | 35.5 µM [falling, single point]
39 | C/C(N)=C(/C#N)C(=O)CSc1nnnn1-c1ccc(C)cc1 | 35.5 µM [rising, single point] | 35.5 µM [rising, single point]
40 | Cc1nc2c(C(=O)NCCc3ccccc3)cnn2c(C)c1Cc1c(F)cccc1Cl | 12.6 µM [falling, single point] | 35.5 µM [falling, single point]
41 | Cc1cccc(C(=O)N[C@H](C(=O)Nc2nnc(C3CC3)s2)C(C)C)c1 | 3.98 µM [rising, full curve] | 
42 | O=C(CSc1nnc(-c2cccnc2)s1)Nc1ccnc2ccccc12 | 3.98 µM [rising, partial curve] | 2 µM [rising, full curve, poor fit]
43 | COc1cccc(/C=N/NC(=O)c2cc3c(OC)cccc3[nH]2)c1O | 11.2 µM [rising, partial curve] | 
44 | COc1ccc(NC(C)C(=O)N/N=C/c2ccccc2OCc2cccc(Br)c2)cc1 (configuration not stated) | 15.8 µM [rising, single point] | 17.8 µM [rising, single point]
45 | CCCCn1nnnc1SCC(=O)c1ccc(C)c(C)c1 | 1.26 µM [rising, partial curve, poor fit] | 
46 | O=C(Nc1cccnc1)c1cccnc1 | 35.5 µM [rising, single point] | 
47 | CCCCn1c(NC(=S)Nc2ccccc2)nc2ccccc21 | 35.5 µM [falling, single point] | 35.5 µM [falling, single point]
48 | COc1ccccc1/C=C/C(=O)c1ccc(Cl)cc1 | 25.1 µM [falling, partial curve] | 28.2 µM [falling, single point]
49 | Cc1ccc(C(=O)CC(Nc2ccc(F)cc2)c2ccccc2)cc1 (configuration not stated) | 35.5 µM [rising, single point] | 
50 | COc1ccccc1Cn1ccn(Cc2c(F)cccc2Cl)c(=O)c1=O | 12.6 µM [rising, single point] | 15.8 µM [rising, partial curve]
51 | Cc1ccc(C(=O)N2CCN(c3ccc(C(F)(F)F)cn3)CC2)c(C)c1 | 15.8 µM [rising, partial curve] | 
52 | Cc1ccc(C(=O)Nc2nc(C)c(C(=O)Nc3ccc4c(c3)CCC4)s2)cc1 |  | 11.2 µM [falling, partial curve]
53 | COc1cc(OC)cc(C(=O)NCCN2C(=O)S/C(=C\c3cccs3)C2=O)c1 |  | 7.94 µM [falling, partial curve]
54 | COc1ccc(C(=O)NC(=S)N2CCN(c3ccc([N+](=O)[O-])cc3)CC2)cc1 | 35.5 µM [rising, partial curve] | 10 µM [rising, partial curve]
55 | COc1cccc(-c2ccc3ncnc(NCc4ccc(OC)cc4OC)c3c2)c1 |  | 10 µM [falling, partial curve, poor fit]
